{"sequences": {"note": "By UniProt entry, the sequences of proteins in these tests, tags left out. Where a name states a change or a piece, a line headed by the entry shows the natural chain unless it says otherwise.", "UniProt Q9FHA3": "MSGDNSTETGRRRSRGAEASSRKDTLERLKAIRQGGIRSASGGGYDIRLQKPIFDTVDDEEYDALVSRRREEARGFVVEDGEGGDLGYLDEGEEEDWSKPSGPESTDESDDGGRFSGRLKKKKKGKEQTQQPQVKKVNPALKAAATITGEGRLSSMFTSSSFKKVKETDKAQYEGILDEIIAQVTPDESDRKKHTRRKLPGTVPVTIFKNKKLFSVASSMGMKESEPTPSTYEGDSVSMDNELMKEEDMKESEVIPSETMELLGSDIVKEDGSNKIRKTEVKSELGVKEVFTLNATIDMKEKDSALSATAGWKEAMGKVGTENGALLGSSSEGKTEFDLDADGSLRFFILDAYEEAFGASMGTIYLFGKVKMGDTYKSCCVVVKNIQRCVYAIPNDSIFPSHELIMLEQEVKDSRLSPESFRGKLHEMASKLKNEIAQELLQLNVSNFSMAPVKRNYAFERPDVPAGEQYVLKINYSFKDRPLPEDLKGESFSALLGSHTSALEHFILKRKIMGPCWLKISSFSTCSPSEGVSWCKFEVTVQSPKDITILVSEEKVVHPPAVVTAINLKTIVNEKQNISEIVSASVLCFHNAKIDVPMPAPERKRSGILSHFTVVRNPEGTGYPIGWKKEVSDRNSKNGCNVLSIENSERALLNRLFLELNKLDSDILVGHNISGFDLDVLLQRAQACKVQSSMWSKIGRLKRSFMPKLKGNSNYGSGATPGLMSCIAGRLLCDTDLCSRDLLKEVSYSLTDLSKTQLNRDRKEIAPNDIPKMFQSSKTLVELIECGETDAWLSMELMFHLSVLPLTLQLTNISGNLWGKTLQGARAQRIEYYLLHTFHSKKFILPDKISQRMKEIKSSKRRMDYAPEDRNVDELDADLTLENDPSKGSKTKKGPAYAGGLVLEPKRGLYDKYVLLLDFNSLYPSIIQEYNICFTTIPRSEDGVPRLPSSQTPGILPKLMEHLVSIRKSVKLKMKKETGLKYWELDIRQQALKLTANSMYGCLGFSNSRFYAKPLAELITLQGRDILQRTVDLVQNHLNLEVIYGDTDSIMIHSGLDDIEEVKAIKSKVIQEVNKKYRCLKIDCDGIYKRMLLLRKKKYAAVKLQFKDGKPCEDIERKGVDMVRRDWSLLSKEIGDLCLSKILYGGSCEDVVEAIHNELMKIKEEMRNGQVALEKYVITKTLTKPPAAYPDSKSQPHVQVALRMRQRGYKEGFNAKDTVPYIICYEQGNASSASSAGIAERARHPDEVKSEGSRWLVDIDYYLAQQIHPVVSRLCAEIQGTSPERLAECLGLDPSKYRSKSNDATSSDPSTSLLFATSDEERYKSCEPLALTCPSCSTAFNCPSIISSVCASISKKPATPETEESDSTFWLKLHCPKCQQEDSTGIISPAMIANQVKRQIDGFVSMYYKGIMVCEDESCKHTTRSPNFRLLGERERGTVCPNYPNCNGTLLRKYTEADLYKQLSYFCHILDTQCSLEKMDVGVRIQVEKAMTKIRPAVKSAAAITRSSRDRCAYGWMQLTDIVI"}, "source": "paper PMC4459967", "target": "T1, MMS19-Flag (Arabidopsis thaliana) (UniProt Q0WVF8)", "T1 sequence": "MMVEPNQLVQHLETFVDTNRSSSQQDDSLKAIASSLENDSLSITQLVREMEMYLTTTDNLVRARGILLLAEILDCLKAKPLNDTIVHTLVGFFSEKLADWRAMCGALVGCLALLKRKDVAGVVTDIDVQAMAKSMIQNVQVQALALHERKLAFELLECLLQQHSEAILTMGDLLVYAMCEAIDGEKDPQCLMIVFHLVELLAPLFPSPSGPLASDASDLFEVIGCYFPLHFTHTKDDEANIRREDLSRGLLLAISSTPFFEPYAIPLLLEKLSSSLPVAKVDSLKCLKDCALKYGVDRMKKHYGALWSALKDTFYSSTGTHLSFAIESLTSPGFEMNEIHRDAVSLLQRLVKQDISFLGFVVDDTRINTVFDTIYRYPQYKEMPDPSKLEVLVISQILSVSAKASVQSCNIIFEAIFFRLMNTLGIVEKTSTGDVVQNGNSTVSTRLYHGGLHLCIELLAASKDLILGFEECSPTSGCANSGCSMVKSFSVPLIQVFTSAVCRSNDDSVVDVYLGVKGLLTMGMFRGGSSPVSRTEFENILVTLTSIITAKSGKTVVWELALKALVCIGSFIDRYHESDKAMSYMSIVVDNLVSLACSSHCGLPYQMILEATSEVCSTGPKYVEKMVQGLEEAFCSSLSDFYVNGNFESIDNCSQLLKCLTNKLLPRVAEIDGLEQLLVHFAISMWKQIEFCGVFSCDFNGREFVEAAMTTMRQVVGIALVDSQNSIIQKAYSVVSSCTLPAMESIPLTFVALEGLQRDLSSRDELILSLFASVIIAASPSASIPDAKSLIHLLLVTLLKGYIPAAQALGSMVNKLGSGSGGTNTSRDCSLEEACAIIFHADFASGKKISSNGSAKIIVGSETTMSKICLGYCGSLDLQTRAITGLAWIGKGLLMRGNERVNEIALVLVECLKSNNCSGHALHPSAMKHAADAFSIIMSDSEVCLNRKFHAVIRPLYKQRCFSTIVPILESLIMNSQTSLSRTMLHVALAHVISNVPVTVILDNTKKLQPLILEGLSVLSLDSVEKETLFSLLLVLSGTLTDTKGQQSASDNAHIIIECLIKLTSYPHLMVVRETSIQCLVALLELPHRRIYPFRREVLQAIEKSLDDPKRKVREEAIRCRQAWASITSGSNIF", "assay": "co-IP; total protein extracts of T2 transgenic plants carrying two tagged transgenes, antibody-conjugated beads, washed 5 or 6 times with lysis buffer, Western blotting", "note": "Results are given in words; binding and its absence hold for the method and conditions named. In cells and extracts the contact can be indirect. Binding calls can cover weak binding; strength is not graded here. Where a sequence is shown, tags or fusion partners need not be part of it.", "data": [{"substance": "ICU2-Myc (from UniProt Q9FHA3)", "values": [{"measurement": "binding", "result": "binds"}]}]}
